# Source: the supplement of paper PMC6411743
# The chains behind the UniProt entries cited, without tags or fusion partners. Where a name states a change or a piece, a line headed by the entry shows the natural chain unless it says otherwise.
# UniProt P49257: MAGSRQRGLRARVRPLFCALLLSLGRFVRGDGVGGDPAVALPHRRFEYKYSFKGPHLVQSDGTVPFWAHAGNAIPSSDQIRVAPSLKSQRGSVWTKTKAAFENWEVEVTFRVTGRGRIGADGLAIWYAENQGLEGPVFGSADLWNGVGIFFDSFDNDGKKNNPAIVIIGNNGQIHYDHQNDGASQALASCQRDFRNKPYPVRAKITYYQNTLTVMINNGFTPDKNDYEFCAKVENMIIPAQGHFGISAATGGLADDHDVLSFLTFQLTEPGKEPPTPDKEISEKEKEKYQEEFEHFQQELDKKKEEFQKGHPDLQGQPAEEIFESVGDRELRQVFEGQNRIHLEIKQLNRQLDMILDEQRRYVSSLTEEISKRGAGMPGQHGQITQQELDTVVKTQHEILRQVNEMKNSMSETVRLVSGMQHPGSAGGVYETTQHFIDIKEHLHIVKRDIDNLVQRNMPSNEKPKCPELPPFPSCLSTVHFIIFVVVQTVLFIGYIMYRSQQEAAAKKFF
# UniProt P49721: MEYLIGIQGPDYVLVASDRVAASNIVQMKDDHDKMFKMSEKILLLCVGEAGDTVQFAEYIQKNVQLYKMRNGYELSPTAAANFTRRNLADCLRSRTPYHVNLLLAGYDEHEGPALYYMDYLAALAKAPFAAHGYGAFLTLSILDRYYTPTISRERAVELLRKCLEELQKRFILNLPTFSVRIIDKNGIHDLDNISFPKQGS
# UniProt P47897: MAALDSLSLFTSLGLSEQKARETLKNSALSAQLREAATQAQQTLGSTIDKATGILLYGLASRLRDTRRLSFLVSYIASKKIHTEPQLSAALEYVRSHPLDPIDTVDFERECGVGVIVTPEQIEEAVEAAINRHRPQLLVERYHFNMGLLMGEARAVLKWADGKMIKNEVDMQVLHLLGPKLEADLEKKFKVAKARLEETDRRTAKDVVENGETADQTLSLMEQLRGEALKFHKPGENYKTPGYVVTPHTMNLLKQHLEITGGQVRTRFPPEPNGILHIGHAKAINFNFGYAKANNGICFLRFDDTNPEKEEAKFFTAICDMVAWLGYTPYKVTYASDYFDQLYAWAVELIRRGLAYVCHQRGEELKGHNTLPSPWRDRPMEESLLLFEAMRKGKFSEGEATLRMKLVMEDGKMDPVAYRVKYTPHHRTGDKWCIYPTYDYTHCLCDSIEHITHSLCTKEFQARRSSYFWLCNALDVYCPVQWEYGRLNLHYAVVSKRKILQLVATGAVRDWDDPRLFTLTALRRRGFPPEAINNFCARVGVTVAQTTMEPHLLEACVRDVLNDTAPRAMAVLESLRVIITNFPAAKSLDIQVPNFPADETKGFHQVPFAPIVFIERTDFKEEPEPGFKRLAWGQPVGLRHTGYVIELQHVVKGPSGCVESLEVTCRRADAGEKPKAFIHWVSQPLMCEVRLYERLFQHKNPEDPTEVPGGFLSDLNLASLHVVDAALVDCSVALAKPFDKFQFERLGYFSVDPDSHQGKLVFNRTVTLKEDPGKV
# UniProt P55011: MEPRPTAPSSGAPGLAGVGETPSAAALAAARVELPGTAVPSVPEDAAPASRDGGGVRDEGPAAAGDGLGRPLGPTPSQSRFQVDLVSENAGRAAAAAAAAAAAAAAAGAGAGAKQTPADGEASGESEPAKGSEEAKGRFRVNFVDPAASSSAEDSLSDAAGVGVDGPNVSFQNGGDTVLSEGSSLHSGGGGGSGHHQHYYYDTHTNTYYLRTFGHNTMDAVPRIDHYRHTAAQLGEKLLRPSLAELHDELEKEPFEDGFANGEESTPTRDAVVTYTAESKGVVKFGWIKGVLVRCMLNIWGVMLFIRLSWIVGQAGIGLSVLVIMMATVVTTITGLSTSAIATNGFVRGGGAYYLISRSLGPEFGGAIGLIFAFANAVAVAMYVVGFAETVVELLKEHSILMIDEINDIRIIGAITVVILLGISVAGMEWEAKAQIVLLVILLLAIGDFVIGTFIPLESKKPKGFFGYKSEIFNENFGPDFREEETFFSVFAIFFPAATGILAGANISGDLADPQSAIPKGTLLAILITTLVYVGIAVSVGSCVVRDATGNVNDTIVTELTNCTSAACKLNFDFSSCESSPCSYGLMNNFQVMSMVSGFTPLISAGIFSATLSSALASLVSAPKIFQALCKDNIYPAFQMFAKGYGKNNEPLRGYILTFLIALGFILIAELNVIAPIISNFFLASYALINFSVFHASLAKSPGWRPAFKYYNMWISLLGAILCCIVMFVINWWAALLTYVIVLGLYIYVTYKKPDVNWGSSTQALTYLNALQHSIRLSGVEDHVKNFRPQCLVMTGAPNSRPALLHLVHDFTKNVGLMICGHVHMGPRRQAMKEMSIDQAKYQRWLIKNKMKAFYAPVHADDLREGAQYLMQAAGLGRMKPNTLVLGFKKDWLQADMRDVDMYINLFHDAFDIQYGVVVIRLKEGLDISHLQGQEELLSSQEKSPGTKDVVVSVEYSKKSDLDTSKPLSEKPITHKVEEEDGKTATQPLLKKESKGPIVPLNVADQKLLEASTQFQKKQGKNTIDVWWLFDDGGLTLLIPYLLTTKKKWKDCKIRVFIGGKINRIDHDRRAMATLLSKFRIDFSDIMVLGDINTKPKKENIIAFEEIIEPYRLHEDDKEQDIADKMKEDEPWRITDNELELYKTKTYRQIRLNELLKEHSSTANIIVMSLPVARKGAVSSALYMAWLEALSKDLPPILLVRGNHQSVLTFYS
# UniProt P55199: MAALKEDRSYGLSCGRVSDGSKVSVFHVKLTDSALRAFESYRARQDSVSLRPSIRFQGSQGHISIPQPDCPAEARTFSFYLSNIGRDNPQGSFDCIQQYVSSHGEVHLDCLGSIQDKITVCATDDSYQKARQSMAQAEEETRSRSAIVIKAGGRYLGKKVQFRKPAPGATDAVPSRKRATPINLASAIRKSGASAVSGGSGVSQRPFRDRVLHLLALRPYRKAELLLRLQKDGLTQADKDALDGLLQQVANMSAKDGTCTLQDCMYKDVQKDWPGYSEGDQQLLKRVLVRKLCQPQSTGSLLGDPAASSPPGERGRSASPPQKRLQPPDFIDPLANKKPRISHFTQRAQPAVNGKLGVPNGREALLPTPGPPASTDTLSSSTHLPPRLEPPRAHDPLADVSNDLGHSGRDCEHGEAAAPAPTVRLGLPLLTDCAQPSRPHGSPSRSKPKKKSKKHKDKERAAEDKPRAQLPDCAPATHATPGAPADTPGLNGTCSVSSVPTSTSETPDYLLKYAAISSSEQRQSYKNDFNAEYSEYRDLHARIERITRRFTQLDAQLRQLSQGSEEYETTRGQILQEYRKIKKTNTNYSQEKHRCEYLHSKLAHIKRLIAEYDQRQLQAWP
# UniProt P55084: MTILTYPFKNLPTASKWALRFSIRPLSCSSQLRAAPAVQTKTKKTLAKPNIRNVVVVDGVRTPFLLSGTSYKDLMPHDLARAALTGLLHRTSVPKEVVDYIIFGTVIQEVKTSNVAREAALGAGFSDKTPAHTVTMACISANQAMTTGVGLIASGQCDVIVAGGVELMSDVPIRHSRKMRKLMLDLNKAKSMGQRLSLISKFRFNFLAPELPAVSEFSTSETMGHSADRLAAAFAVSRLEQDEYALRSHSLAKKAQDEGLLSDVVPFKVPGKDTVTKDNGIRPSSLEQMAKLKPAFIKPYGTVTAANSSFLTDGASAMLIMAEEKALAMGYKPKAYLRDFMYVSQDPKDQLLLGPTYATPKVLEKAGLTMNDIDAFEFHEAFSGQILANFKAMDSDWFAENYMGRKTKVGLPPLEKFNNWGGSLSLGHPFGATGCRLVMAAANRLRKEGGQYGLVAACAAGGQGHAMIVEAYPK
# UniProt P46736, whole entry: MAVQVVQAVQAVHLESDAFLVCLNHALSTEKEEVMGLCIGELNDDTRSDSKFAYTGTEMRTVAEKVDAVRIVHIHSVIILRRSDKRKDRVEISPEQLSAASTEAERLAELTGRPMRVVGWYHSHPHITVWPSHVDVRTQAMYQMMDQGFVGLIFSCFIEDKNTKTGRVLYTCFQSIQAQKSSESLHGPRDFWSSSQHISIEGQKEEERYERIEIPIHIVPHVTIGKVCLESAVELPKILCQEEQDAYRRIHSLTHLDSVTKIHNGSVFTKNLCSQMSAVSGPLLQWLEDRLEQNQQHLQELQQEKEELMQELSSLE
# UniProt P51649: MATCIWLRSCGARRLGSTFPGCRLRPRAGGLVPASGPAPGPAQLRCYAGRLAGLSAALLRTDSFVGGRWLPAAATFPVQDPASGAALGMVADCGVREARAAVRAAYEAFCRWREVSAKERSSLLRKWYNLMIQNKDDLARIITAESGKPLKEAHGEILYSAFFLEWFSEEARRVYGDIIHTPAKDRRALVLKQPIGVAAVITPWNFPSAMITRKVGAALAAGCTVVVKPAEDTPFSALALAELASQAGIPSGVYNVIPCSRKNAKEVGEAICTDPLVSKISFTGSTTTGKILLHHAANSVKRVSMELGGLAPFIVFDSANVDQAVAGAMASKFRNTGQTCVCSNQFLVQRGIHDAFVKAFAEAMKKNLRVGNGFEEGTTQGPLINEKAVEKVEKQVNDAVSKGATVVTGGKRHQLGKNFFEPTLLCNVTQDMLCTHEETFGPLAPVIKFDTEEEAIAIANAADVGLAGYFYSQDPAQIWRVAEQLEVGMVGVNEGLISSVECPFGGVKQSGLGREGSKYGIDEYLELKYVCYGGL
# UniProt P49841: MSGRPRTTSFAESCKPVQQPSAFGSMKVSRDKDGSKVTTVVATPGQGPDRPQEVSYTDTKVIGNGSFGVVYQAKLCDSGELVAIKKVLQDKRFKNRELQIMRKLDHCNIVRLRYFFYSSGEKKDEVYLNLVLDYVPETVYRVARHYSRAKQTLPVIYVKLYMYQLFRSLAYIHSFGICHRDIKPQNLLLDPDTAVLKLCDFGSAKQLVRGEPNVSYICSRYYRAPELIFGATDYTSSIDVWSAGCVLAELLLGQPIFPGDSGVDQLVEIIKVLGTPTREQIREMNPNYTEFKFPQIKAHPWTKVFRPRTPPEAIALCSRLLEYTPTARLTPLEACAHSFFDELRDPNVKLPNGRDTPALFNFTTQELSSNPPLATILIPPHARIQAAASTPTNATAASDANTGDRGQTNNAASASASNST
# UniProt P43403: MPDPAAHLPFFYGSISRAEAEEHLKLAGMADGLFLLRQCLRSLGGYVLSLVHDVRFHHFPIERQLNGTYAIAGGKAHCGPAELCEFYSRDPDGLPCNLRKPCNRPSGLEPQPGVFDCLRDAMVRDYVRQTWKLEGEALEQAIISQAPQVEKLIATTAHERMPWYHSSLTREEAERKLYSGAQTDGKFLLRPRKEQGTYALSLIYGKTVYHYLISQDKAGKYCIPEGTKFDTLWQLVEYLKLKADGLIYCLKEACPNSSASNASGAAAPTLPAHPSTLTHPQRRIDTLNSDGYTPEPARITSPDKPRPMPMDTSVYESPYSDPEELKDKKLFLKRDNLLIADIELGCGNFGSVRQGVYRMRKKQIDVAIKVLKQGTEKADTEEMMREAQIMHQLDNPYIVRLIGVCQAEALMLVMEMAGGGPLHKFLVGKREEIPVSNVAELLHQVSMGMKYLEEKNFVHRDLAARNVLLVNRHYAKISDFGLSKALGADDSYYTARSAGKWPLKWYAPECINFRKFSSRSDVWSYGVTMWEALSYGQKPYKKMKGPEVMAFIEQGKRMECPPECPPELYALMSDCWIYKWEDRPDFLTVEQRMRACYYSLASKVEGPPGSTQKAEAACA
# UniProt P49754: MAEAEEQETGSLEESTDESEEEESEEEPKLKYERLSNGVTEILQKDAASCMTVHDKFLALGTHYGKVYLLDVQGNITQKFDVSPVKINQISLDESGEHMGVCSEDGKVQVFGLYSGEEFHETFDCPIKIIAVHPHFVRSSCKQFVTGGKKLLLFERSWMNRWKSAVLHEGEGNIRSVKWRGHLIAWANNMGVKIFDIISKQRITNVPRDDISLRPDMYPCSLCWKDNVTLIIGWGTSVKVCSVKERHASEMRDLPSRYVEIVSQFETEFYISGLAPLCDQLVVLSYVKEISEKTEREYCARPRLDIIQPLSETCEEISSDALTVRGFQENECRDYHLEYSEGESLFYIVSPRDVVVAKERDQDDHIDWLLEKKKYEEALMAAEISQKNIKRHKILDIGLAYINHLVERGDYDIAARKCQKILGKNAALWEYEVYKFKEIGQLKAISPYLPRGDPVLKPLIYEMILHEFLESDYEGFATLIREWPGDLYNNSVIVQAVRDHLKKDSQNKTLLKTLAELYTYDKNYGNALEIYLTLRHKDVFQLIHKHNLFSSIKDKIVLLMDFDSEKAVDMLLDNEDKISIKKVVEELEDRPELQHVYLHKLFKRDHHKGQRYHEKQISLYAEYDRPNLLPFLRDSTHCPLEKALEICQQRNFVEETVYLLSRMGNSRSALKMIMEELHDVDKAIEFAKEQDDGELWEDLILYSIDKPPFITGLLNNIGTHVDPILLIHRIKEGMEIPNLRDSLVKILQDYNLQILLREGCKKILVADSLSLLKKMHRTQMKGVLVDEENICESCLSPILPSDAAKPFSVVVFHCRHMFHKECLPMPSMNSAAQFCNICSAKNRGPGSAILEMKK
# ± gives the standard deviation of the averaged measurements. This is a selection; strong and weak results do not stand in their true shares. Most entries show no effect beyond the scatter of the controls.
# Compound: Nc1ncnc2c1ncn2[C@@H]1O[C@H](COP(=O)(O)OP(=O)(O)NP(=O)(O)O)[C@@H](O)[C@H]1O [adenylyl imidodiphosphate]
# Assay: NP40-soluble protein abundance relative to vehicle (solubility fold change) (ratio); higher = more soluble protein in presence of AMP-PNP
# How it was run: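 In three independent experiments, Jurkat crude lysate made by Dounce homogenisation was treated for 10 min at room temperature and then 3 min at 37 °C with eight concentrations ranging from 0.1 to 10 mM. It was then solubilised with 0.8% NP40 plus benzonase for 60 min at 4 °C and ultracentrifuged. The supernatant was TMT-labelled for LC-MS/MS, and each value is the fold change against the detergent-processed vehicle for the same replicate, using vsn-normalised intensities.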
Target,NP40-soluble protein abundance (concentration: 0.1mM),NP40-soluble protein abundance (concentration: 0.5mM)
ETV6 (UniProt P41212),1.0268 ± 0.00044,0.985 ± 0.042
PREP (UniProt P48147),1.03 ± 0.032,0.994 ± 0.074
UniProt P43034 and related entries,1.01 ± 0.033,1.03 ± 0.03
UniProt P45880 and related entries,1.01 ± 0.022,1.01 ± 0.035
SMS (UniProt P52788),0.983 ± 0.015,0.999 ± 0.015
LMAN1 (UniProt P49257),0.987 ± 0.039,0.974 ± 0.025
UniProt P53365 and related entries,1.02 ± 0.034,0.9904 ± 0.0062
UniProt P52630 and related entries,1.01 ± 0.033,0.998 ± 0.035
UniProt P52306 and related entries,0.998 ± 0.018,1.01 ± 0.048
CAPZA2 (UniProt P47755),1 ± 0.012,1.01 ± 0.023
ALDH9A1 (UniProt P49189),1.02 ± 0.018,0.995 ± 0.034
UniProt P53396 and related entries,1.03 ± 0.031,0.988 ± 0.092
UniProt P45983-3|P45983-2,1.03 ± 0.047,1.01 ± 0.046
RECQL (UniProt P46063),1 ± 0.035,0.981 ± 0.045
CAPZA1 (UniProt P52907),0.9894 ± 0.0096,1 ± 0.038
SRP9 (UniProt P49458),1.04 ± 0.11,1.09 ± 0.18
CAMLG (UniProt P49069),0.97 ± 0.018,0.992 ± 0.031
UniProt P45984 and related entries,1.02 ± 0.04,1.01 ± 0.024
PSMB2 (UniProt P49721),1.06 ± 0.031,1 ± 0.03
CDC34 (UniProt P49427),1.01 ± 0.029,0.991 ± 0.057
GNAQ (UniProt P50148),0.998 ± 0.014,1.01 ± 0.037
PLK1 (UniProt P53350),1.038 ± 0.0026,1.04 ± 0.04
UniProt P48960 and related entries,1.03 ± 0.067,1.04 ± 0.071
UniProt P50395 and related entries,0.999 ± 0.037,1.01 ± 0.07

# Nothing new here: an excerpt of the list.
Target,NP40-soluble protein abundance (concentration: 0.1mM),NP40-soluble protein abundance (concentration: 0.5mM)
ETV6 (UniProt P41212),1.0268 ± 0.00044,0.985 ± 0.042
PREP (UniProt P48147),1.03 ± 0.032,0.994 ± 0.074
UniProt P43034 and related entries,1.01 ± 0.033,1.03 ± 0.03
UniProt P45880 and related entries,1.01 ± 0.022,1.01 ± 0.035
SMS (UniProt P52788),0.983 ± 0.015,0.999 ± 0.015
LMAN1 (UniProt P49257),0.987 ± 0.039,0.974 ± 0.025

# Continuation.

Target,NP40-soluble protein abundance (concentration: 0.1mM),NP40-soluble protein abundance (concentration: 0.5mM)
UniProt P55072,0.992 ± 0.02,0.997 ± 0.011
TMED10 (UniProt P49755),1 ± 0.032,1.04 ± 0.061
RPL21 (UniProt P46778),1.09 ± 0.048,1.03 ± 0.035
VASP (UniProt P50552),0.983 ± 0.039,0.976 ± 0.045
UniProt P49116-2|P49116,0.96 ± 0.028,0.964 ± 0.0082
CETN2 (UniProt P41208),0.988 ± 0.043,1.04 ± 0.097
WAS (UniProt P42768),0.968 ± 0.024,0.987 ± 0.059
PMS2 (UniProt P54278),1.04 ± 0.036,1.06 ± 0.067
RAB28 (UniProt P51157),1 ± 0.013,1 ± 0.024
UniProt P47897 and related entries,1.05 ± 0.026,1.02 ± 0.094
UniProt P43155 and related entries,0.989 ± 0.033,0.951 ± 0.073
MTHFR (UniProt P42898),1.01 ± 0.042,1.03 ± 0.055
HSPA13 (UniProt P48723),1.02 ± 0.062,0.994 ± 0.029
ARHGDIB (UniProt P52566),0.9881 ± 0.0089,1.02 ± 0.037
MCM2 (UniProt P49736),0.99 ± 0.043,0.975 ± 0.049
HIRA (UniProt P54198),1.02 ± 0.011,0.9991 ± 0.0082
UniProt P53990 and related entries,0.9642 ± 0.0052,0.975 ± 0.032
PPP1R2 (UniProt P41236),1.04 ± 0.029,1.07 ± 0.056
MAGEA9 (UniProt P43362),0.981 ± 0.014,1.022 ± 0.0077
UniProt P53621 and related entries,1.02 ± 0.027,0.997 ± 0.077
UniProt P47756-2,0.994 ± 0.02,1.02 ± 0.051
NCAPD3 (UniProt P42695),0.96 ± 0.018,0.9835 ± 0.0069
UniProt P41227 and related entries,0.986 ± 0.018,1.04 ± 0.064
UniProt P50613,1.01 ± 0.013,1.01 ± 0.042

Target,NP40-soluble protein abundance (concentration: 0.1mM),NP40-soluble protein abundance (concentration: 0.5mM)
RBM5 (UniProt P52756),1.02 ± 0.03,1.01 ± 0.024
KPNA1 (UniProt P52294),1.03 ± 0.05,0.99 ± 0.043
UniProt P48739 and related entries,0.991 ± 0.0095,1.01 ± 0.03
IARS (UniProt P41252),1.07 ± 0.027,1.01 ± 0.1
FNTA (UniProt P49354),1 ± 0.049,0.989 ± 0.043
UniProt P49406 and related entries,1.03 ± 0.07,0.987 ± 0.076
MNX1 (UniProt P50219),1.01 ± 0.026,1.015 ± 0.008
MLH1 (UniProt P40692),1.04 ± 0.054,1.08 ± 0.048
SLC12A2 (UniProt P55011),0.98 ± 0.022,0.969 ± 0.034
UniProt P50053 and related entries,1 ± 0.016,1 ± 0.036
PHKA2 (UniProt P46019),1.01 ± 0.049,0.982 ± 0.051
PSMB10 (UniProt P40306),0.985 ± 0.042,0.968 ± 0.043
UniProt P49748 and related entries,1 ± 0.038,0.975 ± 0.07
UniProt P53677 and related entries,1.02 ± 0.024,1.03 ± 0.038
SERPINH1 (UniProt P50454),0.98 ± 0.022,0.974 ± 0.031
TPMT (UniProt P51580),0.999 ± 0.029,0.993 ± 0.069
PSMD7 (UniProt P51665),1.01 ± 0.012,0.956 ± 0.065
UniProt P42684 and related entries,0.9879 ± 0.0059,0.991 ± 0.013
MFAP1 (UniProt P55081),1.03 ± 0.018,1.03 ± 0.04
ELL (UniProt P55199),0.991 ± 0.029,0.9878 ± 0.0077
SSR4 (UniProt P51571),0.984 ± 0.025,1.016 ± 0.0069
TUFM (UniProt P49411),1.03 ± 0.061,0.979 ± 0.068
UniProt P51608-2|P51608 and related entries,0.992 ± 0.023,1.02 ± 0.021
DHPS (UniProt P49366),1 ± 0.017,1.01 ± 0.027

Target,NP40-soluble protein abundance (concentration: 0.1mM),NP40-soluble protein abundance (concentration: 0.5mM)
RFC5 (UniProt P40937),1.02 ± 0.022,1.03 ± 0.058
UniProt P45974 and related entries,0.99379 ± 0.00049,0.9867 ± 0.0091
HADHB (UniProt P55084),1.02 ± 0.016,0.999 ± 0.026
NT5C2 (UniProt P49902),1.03 ± 0.031,1.05 ± 0.086
DAP3 (UniProt P51398),1.05 ± 0.031,1.03 ± 0.056
UniProt P46736 and related entries,1.01 ± 0.05,0.993 ± 0.051
UniProt P51513 and related entries,0.973 ± 0.038,1.01 ± 0.026
UniProt P55036 and related entries,0.988 ± 0.0039,0.983 ± 0.023
P42166 and related entries (UniProt P42167+P42166),1.004 ± 0.01,1.03 ± 0.029
UniProt P50750 and related entries,1.03 ± 0.035,1.04 ± 0.081
PSMC4 (UniProt P43686),1.15 ± 0.055,0.944 ± 0.039
MARCKSL1 (UniProt P49006),0.994 ± 0.06,1.03 ± 0.15
DUSP3 (UniProt P51452),0.999 ± 0.036,1 ± 0.028
SERPINB8 (UniProt P50452),1.02 ± 0.022,0.998 ± 0.03
HCCS (UniProt P53701),0.998 ± 0.024,0.986 ± 0.034
UniProt P46734 and related entries,1.08 ± 0.087,1.08 ± 0.11
UniProt P51649 and related entries,0.982 ± 0.038,0.969 ± 0.014
RBM34 (UniProt P42696),0.995 ± 0.051,1 ± 0.068
UniProt P43307 and related entries,1.02 ± 0.034,0.969 ± 0.083
UniProt P42331 and related entries,1.01 ± 0.025,0.983 ± 0.027
UniProt P49407-2|P49407,0.999 ± 0.041,1.05 ± 0.042
KPNA2 (UniProt P52292),1 ± 0.039,0.987 ± 0.029
CDKN1B (UniProt P46527),0.995 ± 0.016,1.02 ± 0.027
GMPS (UniProt P49915),1 ± 0.013,0.993 ± 0.023

Target,NP40-soluble protein abundance (concentration: 0.1mM),NP40-soluble protein abundance (concentration: 0.5mM)
MVD (UniProt P53602),0.984 ± 0.022,0.993 ± 0.041
UniProt P41229 and related entries,1.05 ± 0.051,0.987 ± 0.028
EPS15 (UniProt P42566),0.993 ± 0.019,0.984 ± 0.04
CCT5 (UniProt P48643),1.042 ± 0.0096,1.01 ± 0.051
PPP5C (UniProt P53041),0.991 ± 0.033,0.998 ± 0.025
RANBP2 (UniProt P49792),0.989 ± 0.044,1.03 ± 0.034
UniProt P54687 and related entries,0.999 ± 0.053,0.966 ± 0.042
UniProt P49841 and related entries,0.99 ± 0.019,0.9938 ± 0.007
RPL34 (UniProt P49207),1.03 ± 0.015,1.035 ± 0.0036
SUB1 (UniProt P53999),0.956 ± 0.054,0.953 ± 0.14
UniProt P40925 and related entries,0.9693 ± 0.0059,0.99 ± 0.029
SEPHS1 (UniProt P49903),0.984 ± 0.0094,0.979 ± 0.021
NUP153 (UniProt P49790),0.972 ± 0.019,1.01 ± 0.049
SLC1A4 (UniProt P43007),0.976 ± 0.018,0.9892 ± 0.0086
UniProt P43403 and related entries,1.04 ± 0.013,1.06 ± 0.025
UniProt P51648 and related entries,1.02 ± 0.023,0.981 ± 0.096
MDH2 (UniProt P40926),0.98 ± 0.035,0.992 ± 0.012
RAB9A (UniProt P51151),0.977 ± 0.015,0.997 ± 0.013
STAT6 (UniProt P42226),0.9867 ± 0.0047,0.9956 ± 0.0047
UniProt P50548 and related entries,0.984 ± 0.018,0.97495 ± 0.00022
FASN (UniProt P49327),1.01 ± 0.026,0.984 ± 0.071
SLC16A1 (UniProt P53985),0.987 ± 0.029,0.989 ± 0.049
UniProt P49754 and related entries,0.995 ± 0.062,0.936 ± 0.079
RFC3 (UniProt P40938),1.043 ± 0.0069,1.02 ± 0.049
